Results: PMC11006747
Results are given in words; binding and its absence hold for the method and conditions named. In cells and extracts the contact can be indirect. Some entries that bind do so weakly or less than the wild type.

Sequences of proteins named here, by UniProt entry; tags and fusion partners are left off. A change or cut given only in a name is not applied to a line headed by its entry. A line that says so, or that is headed by a name, gives the form on record, which may keep a tag or linker.
UniProt P17302: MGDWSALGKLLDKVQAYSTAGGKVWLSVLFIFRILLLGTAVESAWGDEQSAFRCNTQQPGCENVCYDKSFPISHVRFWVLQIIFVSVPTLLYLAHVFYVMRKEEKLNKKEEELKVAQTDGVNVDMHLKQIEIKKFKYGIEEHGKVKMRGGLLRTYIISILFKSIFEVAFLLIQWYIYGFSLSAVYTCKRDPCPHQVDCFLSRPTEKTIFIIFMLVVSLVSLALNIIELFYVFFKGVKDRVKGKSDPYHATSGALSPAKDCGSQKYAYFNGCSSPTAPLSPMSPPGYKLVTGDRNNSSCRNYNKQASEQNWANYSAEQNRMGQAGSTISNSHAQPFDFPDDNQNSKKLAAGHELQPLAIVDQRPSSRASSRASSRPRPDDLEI
HA-ITCH-wild type (Q96J02-2, form named): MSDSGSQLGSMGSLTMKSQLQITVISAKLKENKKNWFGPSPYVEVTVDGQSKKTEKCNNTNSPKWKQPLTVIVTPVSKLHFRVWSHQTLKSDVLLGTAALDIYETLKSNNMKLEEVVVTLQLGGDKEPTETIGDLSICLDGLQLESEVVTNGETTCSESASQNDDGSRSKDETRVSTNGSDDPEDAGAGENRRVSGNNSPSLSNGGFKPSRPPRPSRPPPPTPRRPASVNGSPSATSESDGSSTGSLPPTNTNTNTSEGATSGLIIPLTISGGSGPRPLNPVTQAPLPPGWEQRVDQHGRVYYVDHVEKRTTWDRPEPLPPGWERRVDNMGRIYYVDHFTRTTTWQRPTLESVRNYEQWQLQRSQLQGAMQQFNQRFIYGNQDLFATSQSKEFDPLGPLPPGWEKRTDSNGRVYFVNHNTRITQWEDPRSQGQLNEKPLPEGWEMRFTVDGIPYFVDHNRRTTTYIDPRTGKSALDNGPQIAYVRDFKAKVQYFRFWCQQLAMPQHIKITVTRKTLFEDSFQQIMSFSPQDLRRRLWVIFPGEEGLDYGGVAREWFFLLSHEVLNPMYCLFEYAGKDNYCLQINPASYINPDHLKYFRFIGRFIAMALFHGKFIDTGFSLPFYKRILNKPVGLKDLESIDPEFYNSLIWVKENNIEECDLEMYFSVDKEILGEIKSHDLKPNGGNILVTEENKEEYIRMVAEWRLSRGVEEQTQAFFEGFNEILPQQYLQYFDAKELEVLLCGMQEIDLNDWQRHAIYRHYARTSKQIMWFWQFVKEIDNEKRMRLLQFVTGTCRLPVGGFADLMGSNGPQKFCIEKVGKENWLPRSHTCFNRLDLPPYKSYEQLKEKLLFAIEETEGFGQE

Target: Cx43-WT (human connexin43, transiently expressed) (human) (UniProt P17302)
Assay: co-IP; lysates of HeLa cells negative for Cx43, co-transfected 48 h with Cx43-WT or Cx43-P283A and HA-ITCH-WT, immunoprecipitated with anti-Cx43 antibodies cross-linked to protein A-Sepharose, 2 h at 4 °C; HA-ITCH detected by western blot with anti-HA and normalised to Cx43 in the immunoprecipitate; in one experiment cells treated with DMSO or bafilomycin A1 (200 nM) for the last 18 h; rabbit IgG as control

## HA-ITCH-wild type (from UniProt Q96J02-2 1-862) (enzyme)
  binding: binds
